No constants are given. Whether binding was seen depends on the method and setting. For some assays here: Binding seen in cells or lysates may run through a third protein. For some assays here: Tags and fused reporters may be left off the sequences shown.

Amino acid sequences for entries named in this document (tags omitted). A change or cut given only in a name is not applied to a line headed by its entry.
UniProt Q6ZN28: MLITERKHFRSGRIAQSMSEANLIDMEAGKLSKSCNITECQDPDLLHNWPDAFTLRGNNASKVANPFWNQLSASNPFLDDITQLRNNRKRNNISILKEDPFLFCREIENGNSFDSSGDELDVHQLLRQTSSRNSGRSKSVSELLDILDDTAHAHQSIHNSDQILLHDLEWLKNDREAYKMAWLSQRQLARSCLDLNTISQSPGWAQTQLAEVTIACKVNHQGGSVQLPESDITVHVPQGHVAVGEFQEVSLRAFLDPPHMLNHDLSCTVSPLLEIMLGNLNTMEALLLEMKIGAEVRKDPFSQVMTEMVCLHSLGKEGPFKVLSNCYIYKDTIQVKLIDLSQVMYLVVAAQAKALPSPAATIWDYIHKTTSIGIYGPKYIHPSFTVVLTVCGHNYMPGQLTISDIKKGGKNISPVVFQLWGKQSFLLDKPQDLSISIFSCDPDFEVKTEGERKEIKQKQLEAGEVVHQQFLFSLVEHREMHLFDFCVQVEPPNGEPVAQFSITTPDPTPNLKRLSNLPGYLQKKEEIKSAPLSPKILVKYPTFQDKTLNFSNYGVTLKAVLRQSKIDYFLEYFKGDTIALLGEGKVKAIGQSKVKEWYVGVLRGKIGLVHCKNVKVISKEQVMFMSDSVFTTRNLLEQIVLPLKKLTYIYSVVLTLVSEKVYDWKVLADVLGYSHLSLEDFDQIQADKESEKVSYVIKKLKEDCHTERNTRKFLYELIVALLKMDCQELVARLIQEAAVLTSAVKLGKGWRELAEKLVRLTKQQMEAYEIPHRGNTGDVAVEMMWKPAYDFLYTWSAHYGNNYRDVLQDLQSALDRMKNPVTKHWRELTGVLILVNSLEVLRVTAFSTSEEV

Test [1] deals with MACC1 deletion mutant lacking the SH3 domain (ΔSH3), yeast two-hybrid fusion (human) (UniProt Q6ZN28). Nature of the test: two-hybrid; Gal4 system, vectors pGBT9 and pGAD10 or pGAD424, yeast reporter strain Y187, beta-galactosidase filter assay.
Test [2] concerns the target V5-tagged ΔSH3-MACC1 (SW480/ΔSH3 cells) (human) (UniProt Q6ZN28). Nature of the test: co-IP; lysates of SW480/MACC1 or SW480/ΔSH3 cells immunoprecipitated with V5 or GIPC1 antibodies (IgG and beta-tubulin antibodies as negative controls), Western blot with GIPC1 or SH3BP4 antibody. Background: A western blot detects proteins with antibodies after separation by electrophoresis.

B1: GIPC1 (GAIP C-Terminus-Interacting Protein PDZ Domain Containing Family, Member 1), full-length, yeast two-hybrid fusion (protein, UniProt O14908 1-333)
chain: MPLGLGRRKKAPPLVENEEAEPGRGGLGVGEPGPLGGGGSGGPQMGLPPPPPALRPRLVFHTQLAHGSPTGRIEGFTNVKELYGKIAEAFRLPTAEVMFCTLNTHKVDMDKLLGGQIGLEDFIFAHVKGQRKEVEVFKSEDALGLTITDNGAGYAFIKRIKEGSVIDHIHLISVGDMIEAINGQSLLGCRHYEVARLLKELPRGRTFTLKLTEPRKAFDMISQRSAGGRPGSGPQLGTGRGTLRLRSRGPATVEDLPSAFEEKAIEKVDDLLESYMGIRDTELAATMVELGKDKRNPDELAEALDERLGDFAFPDEFVFDVWGAIGDAKVGRY
On to B1, for which the binding entry in test [1] is recorded as “no binding”.

B2: GIPC1 in colorectal cancer cell lysates (SW620, SW480) (protein, UniProt O14908 1-333)
chain: MPLGLGRRKKAPPLVENEEAEPGRGGLGVGEPGPLGGGGSGGPQMGLPPPPPALRPRLVFHTQLAHGSPTGRIEGFTNVKELYGKIAEAFRLPTAEVMFCTLNTHKVDMDKLLGGQIGLEDFIFAHVKGQRKEVEVFKSEDALGLTITDNGAGYAFIKRIKEGSVIDHIHLISVGDMIEAINGQSLLGCRHYEVARLLKELPRGRTFTLKLTEPRKAFDMISQRSAGGRPGSGPQLGTGRGTLRLRSRGPATVEDLPSAFEEKAIEKVDDLLESYMGIRDTELAATMVELGKDKRNPDELAEALDERLGDFAFPDEFVFDVWGAIGDAKVGRY
For B2, the binding result in test [2] is “no binding”.

The values above are taken from paper PMC10748395.
